PubChem BioAssay AID1259254 | NCATS | 2017

Test: 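Genome-wide screen for genes that prevent DNA re-replication in cancer cells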 (primary screen)
Cell system: human HCT116 colorectal cancer cells
Knock-down reagent: single siRNA against human genes
Timing: 3 days
Read-out: 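Nuclei stained with Hoechst and imaged; cell-cycle phase assigned by DNA content; G2 share scaled per plate, non-targeting siRNA 0%, GMNN siRNA 100%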
Direction: G2 robust z-score and G2 cells, % of GMNN control: higher = more G2 cells, more excess DNA replication; raw share of cells in G2: higher = larger share of cells with G2 DNA content
Rule for the call: 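An siRNA counts as active if its G2 robust z-score lies at least 5 MADs above the screen median; here such calls match roughly 38% of GMNN control or more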
Shown is one part, drawn at random, of about 59,000 reagents tested. In the full data, about 1,550 (2.6%) were called active. 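G2 share is only a proxy for re-replication; each gene was hit by three separate siRNAs, and active genes were retested.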 Raw values are not corrected between plates. Entries without a mark were called inactive. The numbers tell different reagents against one gene apart. Not given: the amount of reagent.

| target | siRNA no. | G2 robust z-score | G2 cells, % of GMNN control | raw share of cells in G2 (%) |
| --- | --- | --- | --- | --- |
| SPATA33 (spermatogenesis associated 33) | 1 | -0.543 | -0.855 | 3.75 |
| SPATA33 (spermatogenesis associated 33) | 2 | 0.57 | 6.98 | 5.41 |
| SPATA33 (spermatogenesis associated 33) | 3 | -0.0877 | 2.35 | 2.51 |
| BZW2 (basic leucine zipper and W2 domains 2) | 1 | -1.36 | -6.57 | 2.01 |
| BZW2 (basic leucine zipper and W2 domains 2) | 2 | -0.801 | -2.67 | 3.12 |
| BZW2 (basic leucine zipper and W2 domains 2) | 3 | 1.38 | 12.7 | 11.9 |
| ANKH (ANKH inorganic pyrophosphate transport regulator) | 1 | -0.759 | -2.38 | 3.41 |
| ANKH (ANKH inorganic pyrophosphate transport regulator) | 2 | -0.0195 | 2.83 | 5.81 |
| ANKH (ANKH inorganic pyrophosphate transport regulator) | 3 | -0.0178 | 2.84 | 3.93 |
| ORC6 (origin recognition complex subunit 6) | 1 | -0.187 | 1.65 | 7.03 |
| ORC6 (origin recognition complex subunit 6) | 2 | -0.0229 | 2.81 | 5.09 |
| ORC6 (origin recognition complex subunit 6) | 3 | -0.11 | 2.2 | 4.62 |
| KIAA0825 | 1 | 1.02 | 10.1 | 6.34 |
| KIAA0825 | 2 | -1.05 | -4.39 | 2.04 |
| KIAA0825 | 3 | 0.832 | 8.82 | 6.46 |
| GIMAP6 (GTPase, IMAP family member 6) | 1 | 0.445 | 6.1 | 5.98 |
| GIMAP6 (GTPase, IMAP family member 6) | 2 | -0.591 | -1.19 | 2.96 |
| GIMAP6 (GTPase, IMAP family member 6) | 3 | 2.7 | 22 | 10.6 |
| KIAA1614 | 1 | -0.405 | 0.119 | 4.39 |
| KIAA1614 | 2 | 0.292 | 5.02 | 6.86 |
| KIAA1614 | 3 | -0.596 | -1.22 | 2.64 |
| CYTH1 (cytohesin 1) | 1 | -1.5 | -7.59 | 1.99 |
| CYTH1 (cytohesin 1) | 2 | 2.5 | 20.6 | 12.5 |
| CYTH1 (cytohesin 1) | 3 | -0.259 | 1.15 | 5.06 |
| TLN1 (talin 1) | 1 | 9.26 (active) | 68.1 | 30.1 |
| TLN1 (talin 1) | 2 | 6.88 (active) | 51.4 | 22.1 |
| TLN1 (talin 1) | 3 | 3.67 | 28.8 | 15.6 |
| UIMC1 (ubiquitin interaction motif containing 1) | 1 | -0.298 | 0.873 | 3.92 |
| UIMC1 (ubiquitin interaction motif containing 1) | 2 | 1.58 | 14.1 | 10.2 |
| UIMC1 (ubiquitin interaction motif containing 1) | 3 | -1.13 | -5.02 | 1.53 |
| MOXD1 (monooxygenase DBH like 1) | 1 | -0.944 | -3.68 | 4.5 |
| MOXD1 (monooxygenase DBH like 1) | 2 | 4.45 | 34.3 | 15.6 |
| MOXD1 (monooxygenase DBH like 1) | 3 | -0.76 | -2.38 | 3.21 |
| TANGO6 (transport and golgi organization 6 homolog) | 1 | 1.55 | 13.8 | 10.6 |
| TANGO6 (transport and golgi organization 6 homolog) | 2 | -0.112 | 2.18 | 5.58 |
| TANGO6 (transport and golgi organization 6 homolog) | 3 | -0.147 | 1.93 | 3.21 |
| LALBA (lactalbumin alpha) | 1 | 3.85 | 30.1 | 17 |
| LALBA (lactalbumin alpha) | 2 | -0.488 | -0.466 | 3.04 |
| LALBA (lactalbumin alpha) | 3 | -0.49 | -0.482 | 5.28 |
| SKIC2 (SKI2 subunit of superkiller complex) | 1 | -1.35 | -6.52 | 3.49 |
| SKIC2 (SKI2 subunit of superkiller complex) | 2 | -1.36 | -6.62 | 2.28 |
| SKIC2 (SKI2 subunit of superkiller complex) | 3 | 2.24 | 18.7 | 10.2 |
| SPRED3 (sprouty related EVH1 domain containing 3) | 1 | -0.872 | -3.17 | 3.48 |
| SPRED3 (sprouty related EVH1 domain containing 3) | 2 | -0.62 | -1.4 | 3.3 |
| SPRED3 (sprouty related EVH1 domain containing 3) | 3 | 0.226 | 4.56 | 5.33 |
| CNTN5 (contactin 5) | 1 | -0.407 | 0.105 | 6 |
| CNTN5 (contactin 5) | 2 | -0.958 | -3.77 | 2.85 |
| CNTN5 (contactin 5) | 3 | -0.348 | 0.518 | 4 |
| CIMAP3 (ciliary microtubule associated protein 3) | 1 | -0.367 | 0.385 | 4.32 |
| CIMAP3 (ciliary microtubule associated protein 3) | 2 | -0.437 | -0.109 | 3.07 |
| CIMAP3 (ciliary microtubule associated protein 3) | 3 | 0.7 | 7.89 | 5.44 |
| DDIT4L (DNA damage inducible transcript 4 like) | 1 | -0.281 | 0.993 | 4.49 |
| DDIT4L (DNA damage inducible transcript 4 like) | 2 | -1.07 | -4.59 | 1.96 |
| DDIT4L (DNA damage inducible transcript 4 like) | 3 | -0.0406 | 2.68 | 2.6 |
| ISG15 (ISG15 ubiquitin like modifier) | 1 | 1.69 | 14.9 | 12.1 |
| ISG15 (ISG15 ubiquitin like modifier) | 2 | 3.55 | 27.9 | 15.6 |
| ISG15 (ISG15 ubiquitin like modifier) | 3 | 5.27 (active) | 40.1 | 18 |
| ZNF618 (zinc finger protein 618) | 1 | 1.58 | 14 | 7.92 |
| ZNF618 (zinc finger protein 618) | 2 | -0.938 | -3.63 | 1.91 |
| ZNF618 (zinc finger protein 618) | 3 | -0.282 | 0.98 | 3.87 |
| UTP25 (UTP25 small subunit processome component) | 1 | -0.321 | 0.712 | 4.13 |
| UTP25 (UTP25 small subunit processome component) | 2 | 0.717 | 8.01 | 7.58 |
| UTP25 (UTP25 small subunit processome component) | 3 | -0.772 | -2.46 | 2.48 |
| CCN3 (cellular communication network factor 3) | 1 | -1.11 | -4.81 | 2.93 |
| CCN3 (cellular communication network factor 3) | 2 | -1.6 | -8.3 | 0.941 |
| CCN3 (cellular communication network factor 3) | 3 | -0.48 | -0.411 | 3.21 |
| BANF2 (BANF family member 2) | 1 | 0.315 | 5.18 | 5.57 |
| BANF2 (BANF family member 2) | 2 | -0.523 | -0.714 | 2.69 |
| BANF2 (BANF family member 2) | 3 | -0.367 | 0.388 | 3.2 |
